The values below come from PMC6944118.

Amino acid sequences for entries named in this document (tags omitted).
UniProt O95714: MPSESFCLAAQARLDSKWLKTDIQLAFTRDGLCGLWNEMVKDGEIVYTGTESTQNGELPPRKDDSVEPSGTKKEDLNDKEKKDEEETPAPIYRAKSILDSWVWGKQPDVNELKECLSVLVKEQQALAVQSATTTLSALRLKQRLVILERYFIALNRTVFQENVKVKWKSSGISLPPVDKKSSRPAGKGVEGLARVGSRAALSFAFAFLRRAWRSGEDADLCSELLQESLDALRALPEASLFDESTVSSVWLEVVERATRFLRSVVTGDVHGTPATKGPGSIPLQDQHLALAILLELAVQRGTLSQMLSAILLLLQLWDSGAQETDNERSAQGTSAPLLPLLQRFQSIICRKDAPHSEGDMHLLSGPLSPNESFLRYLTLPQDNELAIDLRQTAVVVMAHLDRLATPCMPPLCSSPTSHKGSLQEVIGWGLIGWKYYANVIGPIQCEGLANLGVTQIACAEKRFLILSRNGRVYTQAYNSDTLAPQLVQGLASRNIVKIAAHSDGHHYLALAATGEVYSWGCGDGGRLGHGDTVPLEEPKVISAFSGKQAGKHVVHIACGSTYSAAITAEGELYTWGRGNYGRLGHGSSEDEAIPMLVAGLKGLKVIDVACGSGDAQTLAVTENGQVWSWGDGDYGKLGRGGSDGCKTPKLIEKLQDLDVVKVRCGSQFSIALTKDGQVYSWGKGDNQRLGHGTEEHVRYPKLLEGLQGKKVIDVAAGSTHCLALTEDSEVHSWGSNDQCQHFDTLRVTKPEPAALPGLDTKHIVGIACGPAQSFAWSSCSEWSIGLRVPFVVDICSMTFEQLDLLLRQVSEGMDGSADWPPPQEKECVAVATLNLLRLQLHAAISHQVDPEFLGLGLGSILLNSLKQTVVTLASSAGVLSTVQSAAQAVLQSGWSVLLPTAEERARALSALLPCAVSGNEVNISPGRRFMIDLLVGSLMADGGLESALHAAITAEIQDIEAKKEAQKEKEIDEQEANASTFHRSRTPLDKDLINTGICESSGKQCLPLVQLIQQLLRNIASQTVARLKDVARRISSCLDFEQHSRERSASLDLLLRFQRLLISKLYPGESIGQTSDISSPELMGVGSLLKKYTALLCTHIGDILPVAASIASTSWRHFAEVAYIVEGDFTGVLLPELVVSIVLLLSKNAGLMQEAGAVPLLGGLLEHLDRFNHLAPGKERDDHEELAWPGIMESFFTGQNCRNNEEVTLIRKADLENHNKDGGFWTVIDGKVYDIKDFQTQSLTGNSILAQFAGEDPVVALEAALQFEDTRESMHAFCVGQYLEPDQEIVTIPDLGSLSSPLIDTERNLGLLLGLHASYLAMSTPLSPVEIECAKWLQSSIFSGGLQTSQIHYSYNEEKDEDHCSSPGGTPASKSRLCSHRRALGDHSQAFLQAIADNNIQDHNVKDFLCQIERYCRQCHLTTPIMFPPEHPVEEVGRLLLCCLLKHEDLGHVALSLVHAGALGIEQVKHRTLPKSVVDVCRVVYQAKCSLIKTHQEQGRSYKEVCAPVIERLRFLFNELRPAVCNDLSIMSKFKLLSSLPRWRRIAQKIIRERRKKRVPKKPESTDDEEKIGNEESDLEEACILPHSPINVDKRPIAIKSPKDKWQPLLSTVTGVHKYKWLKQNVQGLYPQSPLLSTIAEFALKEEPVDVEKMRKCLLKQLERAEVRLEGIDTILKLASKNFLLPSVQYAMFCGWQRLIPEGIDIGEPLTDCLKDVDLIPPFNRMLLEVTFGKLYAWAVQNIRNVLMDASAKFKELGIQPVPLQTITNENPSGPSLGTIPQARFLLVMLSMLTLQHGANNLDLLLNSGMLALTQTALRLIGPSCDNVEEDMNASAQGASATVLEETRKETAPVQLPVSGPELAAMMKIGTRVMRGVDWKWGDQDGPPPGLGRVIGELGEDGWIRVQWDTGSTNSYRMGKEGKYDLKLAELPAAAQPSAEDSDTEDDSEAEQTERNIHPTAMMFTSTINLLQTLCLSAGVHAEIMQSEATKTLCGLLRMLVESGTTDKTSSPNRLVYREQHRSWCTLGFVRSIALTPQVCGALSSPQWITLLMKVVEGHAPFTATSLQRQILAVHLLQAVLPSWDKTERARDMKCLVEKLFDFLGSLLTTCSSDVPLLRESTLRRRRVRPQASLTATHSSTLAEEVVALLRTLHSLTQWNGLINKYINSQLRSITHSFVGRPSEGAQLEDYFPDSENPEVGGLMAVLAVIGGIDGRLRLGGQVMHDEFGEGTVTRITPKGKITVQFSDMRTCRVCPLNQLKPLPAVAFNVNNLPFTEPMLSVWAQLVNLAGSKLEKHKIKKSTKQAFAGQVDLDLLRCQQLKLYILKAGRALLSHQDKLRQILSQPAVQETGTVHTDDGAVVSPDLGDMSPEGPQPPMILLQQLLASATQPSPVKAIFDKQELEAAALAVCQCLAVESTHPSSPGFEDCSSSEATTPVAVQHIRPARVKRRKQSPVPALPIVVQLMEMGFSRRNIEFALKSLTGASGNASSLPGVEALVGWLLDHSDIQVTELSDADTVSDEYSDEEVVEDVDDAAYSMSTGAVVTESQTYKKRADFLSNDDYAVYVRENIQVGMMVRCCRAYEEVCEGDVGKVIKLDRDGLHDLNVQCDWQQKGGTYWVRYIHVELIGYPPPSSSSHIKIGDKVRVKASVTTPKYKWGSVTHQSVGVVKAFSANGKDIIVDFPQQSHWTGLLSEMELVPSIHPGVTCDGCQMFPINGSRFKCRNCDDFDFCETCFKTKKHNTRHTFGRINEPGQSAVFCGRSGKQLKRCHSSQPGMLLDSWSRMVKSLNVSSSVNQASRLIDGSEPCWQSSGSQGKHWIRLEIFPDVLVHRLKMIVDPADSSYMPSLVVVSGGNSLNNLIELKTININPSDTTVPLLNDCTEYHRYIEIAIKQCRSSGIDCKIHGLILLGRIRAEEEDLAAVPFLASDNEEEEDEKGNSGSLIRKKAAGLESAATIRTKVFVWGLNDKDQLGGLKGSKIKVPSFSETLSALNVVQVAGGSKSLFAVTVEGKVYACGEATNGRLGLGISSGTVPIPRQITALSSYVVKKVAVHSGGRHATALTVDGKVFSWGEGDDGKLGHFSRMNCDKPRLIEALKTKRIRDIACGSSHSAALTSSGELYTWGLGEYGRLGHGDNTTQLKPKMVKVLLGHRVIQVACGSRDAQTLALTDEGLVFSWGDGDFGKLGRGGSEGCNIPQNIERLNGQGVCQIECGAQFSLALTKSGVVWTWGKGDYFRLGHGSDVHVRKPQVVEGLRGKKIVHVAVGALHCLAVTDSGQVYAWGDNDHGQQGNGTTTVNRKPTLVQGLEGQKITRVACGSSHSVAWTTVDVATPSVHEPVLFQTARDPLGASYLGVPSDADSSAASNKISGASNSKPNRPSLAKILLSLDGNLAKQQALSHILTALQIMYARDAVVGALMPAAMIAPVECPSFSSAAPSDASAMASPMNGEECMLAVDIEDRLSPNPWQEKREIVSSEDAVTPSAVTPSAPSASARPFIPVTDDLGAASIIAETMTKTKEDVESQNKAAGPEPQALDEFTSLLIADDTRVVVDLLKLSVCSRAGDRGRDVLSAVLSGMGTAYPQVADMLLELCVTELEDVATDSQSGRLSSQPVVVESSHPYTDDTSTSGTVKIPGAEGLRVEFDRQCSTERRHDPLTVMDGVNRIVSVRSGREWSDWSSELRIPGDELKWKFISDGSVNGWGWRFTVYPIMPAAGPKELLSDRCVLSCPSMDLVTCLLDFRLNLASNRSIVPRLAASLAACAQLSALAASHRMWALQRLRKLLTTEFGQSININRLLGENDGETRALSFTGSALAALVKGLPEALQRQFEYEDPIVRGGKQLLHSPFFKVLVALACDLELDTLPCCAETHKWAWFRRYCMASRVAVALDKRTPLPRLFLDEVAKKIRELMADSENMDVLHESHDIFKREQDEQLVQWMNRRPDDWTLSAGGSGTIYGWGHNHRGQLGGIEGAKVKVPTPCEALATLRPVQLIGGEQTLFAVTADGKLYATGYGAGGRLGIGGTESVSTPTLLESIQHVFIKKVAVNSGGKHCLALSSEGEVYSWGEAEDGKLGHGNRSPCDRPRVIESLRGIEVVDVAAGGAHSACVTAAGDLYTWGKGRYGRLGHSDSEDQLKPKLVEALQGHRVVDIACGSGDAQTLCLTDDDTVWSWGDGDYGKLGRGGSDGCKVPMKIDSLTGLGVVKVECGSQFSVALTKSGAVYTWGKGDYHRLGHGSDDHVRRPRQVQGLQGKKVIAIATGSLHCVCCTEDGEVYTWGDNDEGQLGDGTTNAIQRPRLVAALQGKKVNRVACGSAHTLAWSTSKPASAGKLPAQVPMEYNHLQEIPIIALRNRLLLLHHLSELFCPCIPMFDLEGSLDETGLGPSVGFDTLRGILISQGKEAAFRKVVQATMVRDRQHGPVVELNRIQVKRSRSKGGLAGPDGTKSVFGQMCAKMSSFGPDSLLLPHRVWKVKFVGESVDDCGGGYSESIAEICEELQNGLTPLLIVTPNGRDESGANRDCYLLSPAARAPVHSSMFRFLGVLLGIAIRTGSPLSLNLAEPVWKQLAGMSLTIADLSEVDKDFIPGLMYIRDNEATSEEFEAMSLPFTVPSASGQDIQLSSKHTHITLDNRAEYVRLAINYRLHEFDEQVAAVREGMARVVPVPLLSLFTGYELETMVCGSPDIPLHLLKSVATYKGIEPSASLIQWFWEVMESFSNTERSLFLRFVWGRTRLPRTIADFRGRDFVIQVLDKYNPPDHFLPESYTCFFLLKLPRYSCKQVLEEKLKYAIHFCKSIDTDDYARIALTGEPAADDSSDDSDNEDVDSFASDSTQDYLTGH
UniProt Q96JN8: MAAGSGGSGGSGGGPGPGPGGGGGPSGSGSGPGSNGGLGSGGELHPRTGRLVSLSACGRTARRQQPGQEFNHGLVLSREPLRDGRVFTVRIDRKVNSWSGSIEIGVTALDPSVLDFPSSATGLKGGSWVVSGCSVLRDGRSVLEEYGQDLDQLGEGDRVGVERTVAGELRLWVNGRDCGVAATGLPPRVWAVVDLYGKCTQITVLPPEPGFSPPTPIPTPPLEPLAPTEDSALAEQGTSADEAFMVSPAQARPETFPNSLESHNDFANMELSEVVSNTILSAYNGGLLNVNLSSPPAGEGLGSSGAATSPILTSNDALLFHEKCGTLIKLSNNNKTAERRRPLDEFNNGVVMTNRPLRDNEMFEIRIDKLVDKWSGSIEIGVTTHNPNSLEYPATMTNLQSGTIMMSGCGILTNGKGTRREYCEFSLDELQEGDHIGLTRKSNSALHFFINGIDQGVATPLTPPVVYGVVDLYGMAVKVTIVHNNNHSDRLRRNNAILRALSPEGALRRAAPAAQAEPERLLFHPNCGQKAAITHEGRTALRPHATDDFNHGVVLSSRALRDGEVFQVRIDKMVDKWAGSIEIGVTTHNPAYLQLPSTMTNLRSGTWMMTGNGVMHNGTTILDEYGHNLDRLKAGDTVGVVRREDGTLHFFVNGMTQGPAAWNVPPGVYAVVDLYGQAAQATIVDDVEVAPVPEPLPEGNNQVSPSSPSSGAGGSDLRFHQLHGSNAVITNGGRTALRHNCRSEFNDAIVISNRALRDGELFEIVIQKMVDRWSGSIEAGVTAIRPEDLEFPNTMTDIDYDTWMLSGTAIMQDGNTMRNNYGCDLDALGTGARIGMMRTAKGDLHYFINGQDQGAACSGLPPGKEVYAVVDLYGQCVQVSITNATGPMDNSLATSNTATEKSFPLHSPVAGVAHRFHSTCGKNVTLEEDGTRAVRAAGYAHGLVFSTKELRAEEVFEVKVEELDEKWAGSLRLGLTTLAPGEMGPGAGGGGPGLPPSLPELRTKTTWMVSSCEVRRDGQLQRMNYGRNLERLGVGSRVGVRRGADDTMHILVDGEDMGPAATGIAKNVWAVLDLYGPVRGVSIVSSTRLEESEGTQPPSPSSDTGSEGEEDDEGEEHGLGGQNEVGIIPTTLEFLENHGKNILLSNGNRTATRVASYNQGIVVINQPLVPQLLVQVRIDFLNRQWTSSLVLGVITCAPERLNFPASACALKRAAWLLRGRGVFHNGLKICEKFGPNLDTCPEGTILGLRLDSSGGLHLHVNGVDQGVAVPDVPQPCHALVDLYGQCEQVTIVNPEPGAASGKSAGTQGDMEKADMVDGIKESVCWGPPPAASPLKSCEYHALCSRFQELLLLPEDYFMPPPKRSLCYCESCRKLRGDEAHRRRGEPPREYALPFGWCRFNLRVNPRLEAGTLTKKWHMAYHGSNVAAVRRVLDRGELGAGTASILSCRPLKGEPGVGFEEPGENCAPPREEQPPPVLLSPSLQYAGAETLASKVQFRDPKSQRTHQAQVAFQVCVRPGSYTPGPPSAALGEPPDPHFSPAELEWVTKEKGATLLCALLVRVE

These are yes or no findings as the source states them, for the method shown. Binding seen in cells or lysates may run through a third protein. Some binding calls cover weakened binding; strength is not graded here.

This assay concerns the target HERC2 (ubiquitin E3 ligase), endogenous (human (endogenous in U2OS, HEK293T, A549, H1299)) (UniProt O95714). Kind of assay: co-IP; endogenous HERC2 precipitated with bvg3 antibody from U2OS cells transfected with Flag-MDM2 and p53-CFP for 24 h; untreated or bleomycin for the last 3 h; pre-immune serum as negative control; endogenous p53 also present.

As to “NEURL4 (neuralized E3 ubiquitin protein ligase 4), endogenous (from UniProt Q96JN8 1-1562)”, the binding entry is given as “binds”.
